Laboratory results reported in patent US9156838B2, “Fused heterocyclic compound” (Sumitomo Chemical Company, Limited, priority 2012, dated 2015).
Some entries share one result that the patent states for a list of compounds.

Columns and labels:
Type in all cases: in vivo
Nilaparvata lugens = test: Test Example 4: drench at foot of rice seedling, Nilaparvata lugens larvae released; conditions: 500 ppm, 5 ml drench at foot of rice seedling, larvae released after 7 days, examined after further 6 days
[1] = test system: Adoxophyes orana fasciata; test: Test Example 7: sprayed apple tree, Adoxophyes orana fasciata first-instar; conditions: 500 ppm, 20 mL/cup sprayed on apple tree, after 7 days
Plutella xylostella = test: Test Example 6: sprayed cabbage foliage, Plutella xylostella larvae; conditions: 500 ppm, 20 mL/cup sprayed on cabbage, second instar larvae, 25° C. for 5 days
Aphis gossypii [2] = test: Test Example 1: foliar spray on cucumber seedling inoculated with Aphis gossypii; conditions: 500 ppm active ingredient, 20 ml sprayed on cucumber seedling, six days after spraying
Culex pipiens pallens = test: Test Example 10: Culex pipiens pallens last-instar larvae in treated water; conditions: active ingredient concentration 3.5 ppm in water, one day later
Aphis gossypii [3] = test: Test Example 2: drench at foot of cucumber seedling, then inoculation with Aphis gossypii; conditions: 500 ppm, 5 ml drench at foot of cucumber seedling, inoculated after 7 days, examined after further 6 days
Musca domestica = test: Test Example 8: treated filter paper with sucrose bait, Musca domestica female imagoes; conditions: 500 ppm, 0.7 ml on filter paper, after 24 hours
Bemisia tabaci = test: Test Example 5: spray on tomato seedling with Bemisia tabaci instar larvae; conditions: 500 ppm, 20 ml/cup sprayed on tomato seedling, after 7 days

| Compound | controlling value (Nilaparvata lugens) [%] | death rate [1] [%] | death rate (Plutella xylostella) [%] | controlling value (Aphis gossypii [2]) [%] | death rate (Culex pipiens pallens) [%] | controlling value (Aphis gossypii [3]) [%] | death rate (Musca domestica) [%] | controlling value (Bemisia tabaci) [%] |
| --- | --- | --- | --- | --- | --- | --- | --- | --- |
| CCS(=O)(=O)c1cc(SC(F)(F)F)ccc1-c1nc2cc(C(F)(F)F)cnc2n1C [Compound 1] | ≥ 90 | ≥ 90 | ≥ 80 | ≥ 90 | ≥ 91 |  |  |  |
| CCS(=O)(=O)c1cc(S(=O)(=O)C(F)(F)F)ccc1-c1nc2cc(C(F)(F)F)cnc2n1C [Compound 2] |  | ≥ 90 | ≥ 80 | ≥ 90 | ≥ 91 | ≥ 90 | ≥ 100 |  |
| CCS(=O)(=O)c1cc([S+]([O-])C(F)(F)F)ccc1-c1nc2cc(C(F)(F)F)cnc2n1C (stereo not shown) [Compound 3] | ≥ 90 | ≥ 90 | ≥ 80 | ≥ 90 | ≥ 91 | ≥ 90 | ≥ 100 | ≥ 90 |
| CCSc1cc(C(F)(C(F)(F)F)C(F)(F)F)ccc1-c1nc2cc(C(F)(F)F)cnc2n1C [Compound 4] |  | ≥ 90 | ≥ 80 |  |  |  |  |  |
| CC[S+]([O-])c1cc(C(F)(C(F)(F)F)C(F)(F)F)ccc1-c1nc2cc(C(F)(F)F)cnc2n1C (stereo not shown) [Compound 5] |  | ≥ 90 | ≥ 80 |  |  |  |  |  |
| CCS(=O)(=O)c1cc(C(F)(C(F)(F)F)C(F)(F)F)ccc1-c1nc2cc(C(F)(F)F)cnc2n1C [Compound 6] |  | ≥ 90 | ≥ 80 |  |  |  |  |  |
